Laboratory results: patent US20180214568A1
These are yes or no findings as the source states them, for the method shown. Some entries that bind do so weakly or less than the wild type.

Sequences of proteins named here, by UniProt entry; tags and fusion partners are left off. Residues count along the entry.
UniProt P13595, residues 20-711: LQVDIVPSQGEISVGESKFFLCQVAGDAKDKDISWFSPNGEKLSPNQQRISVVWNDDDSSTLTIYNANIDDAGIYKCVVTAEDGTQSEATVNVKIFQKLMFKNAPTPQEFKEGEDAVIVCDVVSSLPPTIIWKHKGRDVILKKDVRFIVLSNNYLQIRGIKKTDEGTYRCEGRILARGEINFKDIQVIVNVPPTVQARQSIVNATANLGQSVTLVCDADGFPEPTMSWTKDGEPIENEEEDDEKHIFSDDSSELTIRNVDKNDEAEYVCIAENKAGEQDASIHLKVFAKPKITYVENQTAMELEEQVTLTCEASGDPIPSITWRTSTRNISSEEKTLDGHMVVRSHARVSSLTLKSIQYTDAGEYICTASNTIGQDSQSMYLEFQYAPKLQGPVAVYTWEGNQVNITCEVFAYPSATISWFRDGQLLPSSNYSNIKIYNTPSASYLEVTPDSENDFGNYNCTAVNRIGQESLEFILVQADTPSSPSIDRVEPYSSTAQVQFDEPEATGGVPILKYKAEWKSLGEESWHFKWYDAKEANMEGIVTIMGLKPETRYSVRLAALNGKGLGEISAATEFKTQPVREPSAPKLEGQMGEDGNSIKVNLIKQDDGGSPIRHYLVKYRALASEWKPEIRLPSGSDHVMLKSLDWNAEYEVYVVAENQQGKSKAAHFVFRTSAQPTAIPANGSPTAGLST

Assays:
mouse CD56 (mouse) [1] = molecular target: mouse CD56 (mouse) (UniProt P13595); test: ELISA on coated mouse CD56 ectodomain, IgG titrated, OD405
mouse CD56 (mouse) [2] = molecular target: mouse CD56 (mouse) (UniProt P13595); test: ELISA

binding (mouse CD56 (mouse) [1]): binds | binding (mouse CD56 (mouse) [2]): binds
B1: m906 IgG1 (antibody, V domains shown)
VH: EVQLVQSGAEVKKPGSSVKVSCKASGGTFTGYYMHWVRQAPGQGLEWMGWINPNSGGTNYAQKFQGRVTMTRDTSISTAYMELSRLRSDDTAVYYCARDLSSGYSGYFDYWGQGTLVTVSS
VL: DVVMTQSPLSLPVTPGEPASISCRSSQSLLHSNGYNFLDWYLQKPGQSPQLLIYLGSNRASGVPDRFSGSGSGTDFTLKISRVEADDVGVYYCMQSLQTPWTFGHGTKVEIKR
